# Results as given in the supplement of paper PMC8728848.
# The list shows a part of the results.
# B1: CD72 ectodomain (Homo sapiens), P21854 (protein)
# chain: RYLQVSQQLQQTNRVLEVTNSSLRQQLRLKITQLGQSAEDLQGSRRELAQSQEALQVEQRAHQAAEGQLQACQADRQKTKETLQSEEQQRRALEQKLSNMENRLKPFFTCGSADTCCPSGWIMHQKSCFYISLTSKNWQESQKQCETLSSKLATFSEIYPQSHSYYFLNSLLPNGGSGNSYWTGLSSNKDWKLTDDTQRTRTYAQSSKCNKVHKTWSWWTLESESCRSSLPYICEMTAFRFPD
# How the values were obtained:
# Experiment in all cases: glycan array binding signal (z-score within array); higher = stronger binding
# Conditions in all cases: glycan notation: IUPAC condensed, linker removed
# Fuc(a1-2)Gal = target: Fuc(a1-2)Gal
# Method in brief: (§1)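 Columns mapping to the same glycan were averaged after glycan names were converted to IUPAC-condensed notation. The data come from 3228 arrays in the Consortium for Functional Glycomics database, limited to those with an available protein sequence. Binding is reported as a within-array Z-score averaged across arrays of one protein sequence and across linkers.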
# Fuc(a1-2)Gal(b1-3)GalNAc = target: Fuc(a1-2)Gal(b1-3)GalNAc
# Method in brief: as §1
# [1] = target: Fuc(a1-2)Gal(b1-3)GalNAc(a1-3)[Fuc(a1-2)]Gal(b1-4)Glc
# Method in brief: as §1
# [2] = target: Fuc(a1-2)Gal(b1-3)GalNAc(a1-3)[Fuc(a1-2)]Gal(b1-4)GlcNAc
# Method in brief: as §1
# [3] = target: Fuc(a1-2)Gal(b1-3)GalNAc(b1-3)Gal
# Method in brief: as §1
# [4] = target: Fuc(a1-2)Gal(b1-3)GalNAc(b1-3)Gal(a1-4)Gal(b1-4)Glc
# Method in brief: as §1
# [5] = target: Fuc(a1-2)Gal(b1-3)GalNAc(b1-4)[Neu5Ac(a2-3)]Gal(b1-4)Glc
# Method in brief: as §1
# Fuc(a1-2)Gal(b1-3)GlcNAc = target: Fuc(a1-2)Gal(b1-3)GlcNAc
# Method in brief: as §1
# [6] = target: Fuc(a1-2)Gal(b1-3)GlcNAc(b1-2)Man(a1-3)[Fuc(a1-2)Gal(b1-3)GlcNAc(b1-2)Man(a1-6)]Man(b1-4)GlcNAc(b1-4)GlcNAc
# Method in brief: as §1
# [7] = target: Fuc(a1-2)Gal(b1-3)GlcNAc(b1-2)Man(a1-3)[Fuc(a1-2)Gal(b1-3)GlcNAc(b1-2)Man(a1-6)]Man(b1-4)GlcNAc(b1-4)[Fuc(a1-6)]GlcNAc
# Method in brief: as §1
# [8] = target: Fuc(a1-2)Gal(b1-3)GlcNAc(b1-3)Gal(b1-4)Glc
# Method in brief: as §1
# [9] = target: Fuc(a1-2)Gal(b1-3)GlcNAc(b1-3)GalNAc
# Method in brief: as §1
# [10] = target: Fuc(a1-2)Gal(b1-3)GlcNAc(b1-3)[Fuc(a1-3)[Gal(b1-4)]GlcNAc(b1-6)]Gal(b1-4)Glc
# Method in brief: as §1
# [11] = target: Fuc(a1-2)Gal(b1-3)GlcNAc(b1-3)[Gal(b1-4)GlcNAc(b1-6)]Gal(b1-4)Glc
# Method in brief: as §1
# [12] = target: Fuc(a1-2)Gal(b1-3)GlcNAc(b1-3)[Neu5Ac(a2-6)Gal(b1-4)GlcNAc(b1-6)]Gal(b1-4)Glc
# Method in brief: as §1
# [13] = target: Fuc(a1-2)Gal(b1-3)[Fuc(a1-4)]GlcNAc
# Method in brief: as §1
# [14] = target: Fuc(a1-2)Gal(b1-3)[Fuc(a1-4)]GlcNAc(b1-2)Man(a1-3)[Fuc(a1-2)Gal(b1-3)[Fuc(a1-4)]GlcNAc(b1-2)Man(a1-6)]Man(b1-4)GlcNAc(b1-4)GlcNAc
# Method in brief: as §1
# [15] = target: Fuc(a1-2)Gal(b1-3)[Fuc(a1-4)]GlcNAc(b1-3)[Fuc(a1-3)[Gal(b1-4)]GlcNAc(b1-6)]Gal(b1-4)Glc
# Method in brief: as §1
# [16] = target: Fuc(a1-2)Gal(b1-3)[Fuc(a1-4)]GlcNAc(b1-3)[Gal(b1-4)GlcNAc(b1-6)]Gal(b1-4)Glc
# Method in brief: as §1
# Fuc(a1-2)Gal(b1-4)Glc = target: Fuc(a1-2)Gal(b1-4)Glc
# Method in brief: as §1
# Fuc(a1-2)Gal(b1-4)Glc6S = target: Fuc(a1-2)Gal(b1-4)Glc6S
# Method in brief: as §1
# Fuc(a1-2)Gal(b1-4)GlcNAc = target: Fuc(a1-2)Gal(b1-4)GlcNAc
# Method in brief: as §1
# [17] = target: Fuc(a1-2)Gal(b1-4)GlcNAc(b1-2)Man(a1-3)[Fuc(a1-2)Gal(b1-4)GlcNAc(b1-2)Man(a1-6)]Man(b1-4)GlcNAc(b1-4)GlcNAc
# Method in brief: as §1
# [18] = target: Fuc(a1-2)Gal(b1-4)GlcNAc(b1-2)Man(a1-3)[Fuc(a1-2)Gal(b1-4)GlcNAc(b1-2)Man(a1-6)]Man(b1-4)GlcNAc(b1-4)[Fuc(a1-6)]GlcNAc
# Method in brief: as §1
# [19] = target: Fuc(a1-2)Gal(b1-4)GlcNAc(b1-2)[Fuc(a1-2)Gal(b1-4)GlcNAc(b1-4)]Man(a1-3)[Fuc(a1-2)Gal(b1-4)GlcNAc(b1-2)Man(a1-6)]Man(b1-4)GlcNAc(b1-4)GlcNAc
# Method in brief: as §1
# [20] = target: Fuc(a1-2)Gal(b1-4)GlcNAc(b1-3)Gal(b1-4)GlcNAc
# Method in brief: as §1
# [21] = target: Fuc(a1-2)Gal(b1-4)GlcNAc(b1-3)Gal(b1-4)GlcNAc(b1-3)Gal(b1-4)GlcNAc
# Method in brief: as §1
# [22] = target: Fuc(a1-2)Gal(b1-4)GlcNAc(b1-3)GalNAc
# Method in brief: as §1
# [23] = target: Fuc(a1-2)Gal(b1-4)GlcNAc(b1-3)[Fuc(a1-2)Gal(b1-4)GlcNAc(b1-6)]GalNAc
# Method in brief: as §1
# [24] = target: Fuc(a1-2)Gal(b1-4)GlcNAc6S
# Method in brief: as §1
# [25] = target: Fuc(a1-2)Gal(b1-4)[Fuc(a1-3)]GlcNAc
# Method in brief: as §1
# [26] = target: Fuc(a1-2)Gal(b1-4)[Fuc(a1-3)]GlcNAc(b1-2)Man(a1-3)[Fuc(a1-2)Gal(b1-4)[Fuc(a1-3)]GlcNAc(b1-2)Man(a1-6)]Man(b1-4)GlcNAc(b1-4)GlcNAc
# Method in brief: as §1
# [27] = target: Fuc(a1-2)Gal(b1-4)[Fuc(a1-3)]GlcNAc(b1-2)[Fuc(a1-2)Gal(b1-4)[Fuc(a1-3)]GlcNAc(b1-4)]Man(a1-3)[Fuc(a1-2)Gal(b1-4)[Fuc(a1-3)]GlcNAc(b1-2)Man(a1-6)]Man(b1-4)GlcNAc(b1-4)GlcNAc
# Method in brief: as §1
# [28] = target: Fuc(a1-2)Gal(b1-4)[Fuc(a1-3)]GlcNAc(b1-3)Gal(b1-4)[Fuc(a1-3)]GlcNAc
# Method in brief: as §1
# [29] = target: Fuc(a1-2)Gal(b1-4)[Fuc(a1-3)]GlcNAc(b1-3)Gal(b1-4)[Fuc(a1-3)]GlcNAc(b1-3)Gal(b1-4)[Fuc(a1-3)]GlcNAc
# Method in brief: as §1
# [30] = target: Fuc(a1-2)Gal(b1-4)[Fuc(a1-3)]GlcNAc(b1-3)GalNAc
# Method in brief: as §1
# Fuc(a1-2)Gal6S(b1-4)Glc = target: Fuc(a1-2)Gal6S(b1-4)Glc
# Method in brief: as §1
# [31] = target: Fuc(a1-2)Gal6S(b1-4)Glc6S
# Method in brief: as §1
# [32] = target: Fuc(a1-2)Gal6S(b1-4)GlcNAc
# Method in brief: as §1
# Fuc(a1-2)[Gal(a1-3)]Gal = target: Fuc(a1-2)[Gal(a1-3)]Gal
# Method in brief: as §1
# [33] = target: Fuc(a1-2)[Gal(a1-3)]Gal(b1-3)GalNAc
# Method in brief: as §1
# [34] = target: Fuc(a1-2)[Gal(a1-3)]Gal(b1-3)GlcNAc
# Method in brief: as §1
# [35] = target: Fuc(a1-2)[Gal(a1-3)]Gal(b1-3)GlcNAc(b1-2)Man(a1-3)[Fuc(a1-2)[Gal(a1-3)]Gal(b1-3)GlcNAc(b1-2)Man(a1-6)]Man(b1-4)GlcNAc(b1-4)GlcNAc
# Method in brief: as §1
# [36] = target: Fuc(a1-2)[Gal(a1-3)]Gal(b1-3)GlcNAc(b1-2)Man(a1-3)[Fuc(a1-2)[Gal(a1-3)]Gal(b1-3)GlcNAc(b1-2)Man(a1-6)]Man(b1-4)GlcNAc(b1-4)[Fuc(a1-6)]GlcNAc
# Method in brief: as §1
# [37] = target: Fuc(a1-2)[Gal(a1-3)]Gal(b1-3)GlcNAc(b1-3)GalNAc
# Method in brief: as §1
binder,measurement,setting,value
B1,glycan array binding signal (z-score),Fuc(a1-2)Gal,0.269
same,glycan array binding signal (z-score),Fuc(a1-2)Gal(b1-3)GalNAc,-0.551
same,glycan array binding signal (z-score),[1],1.18
same,glycan array binding signal (z-score),[2],-1.21
same,glycan array binding signal (z-score),[3],-0.429
same,glycan array binding signal (z-score),[4],-0.867
same,glycan array binding signal (z-score),[5],0.01
same,glycan array binding signal (z-score),Fuc(a1-2)Gal(b1-3)GlcNAc,1.12
same,glycan array binding signal (z-score),[6],1.96
same,glycan array binding signal (z-score),[7],-0.47
same,glycan array binding signal (z-score),[8],0.488
same,glycan array binding signal (z-score),[9],-0.037
same,glycan array binding signal (z-score),[10],0.343
same,glycan array binding signal (z-score),[11],0.07
same,glycan array binding signal (z-score),[12],-1.56
same,glycan array binding signal (z-score),[13],-0.346
same,glycan array binding signal (z-score),[14],-0.538
same,glycan array binding signal (z-score),[15],-0.186
same,glycan array binding signal (z-score),[16],0.015
same,glycan array binding signal (z-score),Fuc(a1-2)Gal(b1-4)Glc,-0.221
same,glycan array binding signal (z-score),Fuc(a1-2)Gal(b1-4)Glc6S,1.24
same,glycan array binding signal (z-score),Fuc(a1-2)Gal(b1-4)GlcNAc,-0.018
same,glycan array binding signal (z-score),[17],-1.39
same,glycan array binding signal (z-score),[18],1.93
same,glycan array binding signal (z-score),[19],1.08
same,glycan array binding signal (z-score),[20],-0.976
same,glycan array binding signal (z-score),[21],-0.885
same,glycan array binding signal (z-score),[22],1.08
same,glycan array binding signal (z-score),[23],1.7
same,glycan array binding signal (z-score),[24],1.04
same,glycan array binding signal (z-score),[25],0.378
same,glycan array binding signal (z-score),[26],1.11
same,glycan array binding signal (z-score),[27],0.317
same,glycan array binding signal (z-score),[28],-0.73
same,glycan array binding signal (z-score),[29],0.387
same,glycan array binding signal (z-score),[30],5.72
same,glycan array binding signal (z-score),Fuc(a1-2)Gal6S(b1-4)Glc,0.07
same,glycan array binding signal (z-score),[31],-0.873
same,glycan array binding signal (z-score),[32],-0.408
same,glycan array binding signal (z-score),Fuc(a1-2)[Gal(a1-3)]Gal,-0.32
same,glycan array binding signal (z-score),[33],-0.158
same,glycan array binding signal (z-score),[34],0.445
same,glycan array binding signal (z-score),[35],-0.356
same,glycan array binding signal (z-score),[36],2.7
same,glycan array binding signal (z-score),[37],1.37

# Reformatted with bars between the fields: part of the list above
binder | measurement | setting | value
B1 | glycan array binding signal (z-score) | [18] | 1.93
same | glycan array binding signal (z-score) | [19] | 1.08
same | glycan array binding signal (z-score) | [20] | -0.976
